Data as given in patent US6942870B2, “Compositions and methods using direct MMP inhibitors for inhibiting photoaging of skin” (The Regents of the University of Michigan, priority 1997, dated 2005).
For at least one compound, name, drawing or mass did not settle the structure.

Columns and labels:
type I collagenase = test: Type I collagenase activity/level in biopsies of UV-exposed human skin; type: in vivo; settings: for collagenase activity vs vehicle alone: biopsy 24 hours after exposure
Method: (§1) In the following examples, four F36T12 ERE-VHO UV bulbs were used to irradiate human skin. At all times, a Kodocel TA401/407 filter was mounted 4 cm in front of the bulbs to remove UVC radiation (<290 nm). Radiation intensity was monitored using an IL443 phototherapy radiometer and an SED240/UVB/W photodetector (International Light, Newbury, Mass.). Spectroradiometry was performed using an Optronic Labroatories OL 754 system. Total irradiance (290-800 nm) at about 43 cm (17 in.) from the source of four bulbs was about 1.5 mJ/cm^2·s (1.49×10^−3 W/cm^2). The radiation output from this bulb was determined by spectroradiometry to provide about 47% UVB and about 27% UVA (composed of about 9% UVA1 (340-400 nm) and about 18% UVA2 (320-340 nm)), the remainder being visible and IR radiation. An exposure of about 160 seconds under this set of four bulbs is equivalent to an exposure of one MED. Accordingly, when compared with natural sunlight which has 0.5% UVB and 6.5% UVA, it can be seen that the set of four bulbs used in these experiments provides far less UVA radiation than would exposure to the sun of an equivalent amount of UVB.
(§2) In the following examples, a “standard vechicle” of 30% PEG (polyethylene glycol) in 70% ethanol (with 0.05% BHT as preservative) was used. […] MMP activities were measured by zymography.
Matrix metalloproteinase assays. Tissue pieces were frozen in liquid nitrogen immediately after biopsy, homogenized in 20 mM Tris HCl (pH 7.6) plus 5 mM CaCl2, and centrifuged at 3000×g for 10 minutes to remove particulates. Ability to release soluble radioactive fragments from 3H-labeled fibrillar Type I collagen (described by Fisher, G. J., et al., Nature, 379, 335-339 (1996) and Hu, C-L, et al., Analytic. Biochem, 88, 638-643 (1978)) was used as a measure of collagenolytic activity. […] Subsequently, 0.2 μCi of collagen substrate (NEN-DuPont, Boston, Mass.) was incubated for 24 hours with 50 μl of tissue extract. At the end of the 24-hour incubation period, the samples were centrifuged at 12,000×g for 10 minutes to pellet the intact protein. Radioactivity remaining in the supernatant fluid was then measured and from this, the percentage of substrate hydrolzyed was determined.

92 KDa gelatinase = test: 92 kDa gelatinase activity/level in biopsies of UV-exposed human skin (gelatin zymography); type: in vivo; settings: for gelatinase activity vs vehicle alone: biopsy 24 hours after exposure
Method: as §1, §2
Gelatin zymography (Varani et al., op. cit.) was used to assess MMP-2 (72-kD gelatinase; gelatinase A) and MMP9 (92-kD gelatinase; gelatinase B) activity. Tissue extracts were electrophoresed in an 8.5% SDS-polyacrylamide gel containing 1 mg/ml of gelatin. After electrophoresis, the SDS was removed by three sequential washes in 1% Triton X-100. The first two washes were for 20 minutes each and the last was overnight. Quantitation of hydrolysis zone width was done by laser densitometry.

cJUN protein = cJUN protein in UV-exposed human skin (Western analysis); type: in vivo
stromelysin-1 = test: Stromelysin-1 level in UV-exposed human skin
[1] = 0.1% RA 16 hours prior to 2 MED
[2] = 0.1% RA 24 hours prior to 2 MED
[3] = 0.1% RA 48 hours prior to 2 MED
[4] = 2 MED, applied 48 hours prior to exposure
[5] = tRA-pretreated vs unpretreated skin
[6] = tRA-treated skin, before UV irradiation

CC1=C(/C=C/C(C)=C/C=C/C(C)=C/C(=O)O)C(C)(C)CCC1 [RA, retinoic acid]
collagenase activity vs vehicle alone (type I collagenase; 0.1% RA 7 hours prior to 2 MED): did not yield activities for the collagenase or gelatinase significantly different than the vehicle alone | collagenase activity vs vehicle alone (type I collagenase; [1]): not much different | collagenase activity vs vehicle alone (type I collagenase; [2]): significantly lower | collagenase activity vs vehicle alone (type I collagenase; [3]): reduced even further | UV-mediated induction of collagenase levels, activity and mRNA (type I collagenase; [4]): decreases | level of collagenase after UV irradiation (type I collagenase; [5]): substantial reduction | basal level of collagenase (type I collagenase; [6]): did not alter | gelatinase activity vs vehicle alone (92 KDa gelatinase; 0.1% RA 7 hours prior to 2 MED): did not yield activities for the collagenase or gelatinase significantly different than the vehicle alone | gelatinase activity vs vehicle alone (92 KDa gelatinase; [1]): clearly decreased | gelatinase activity vs vehicle alone (92 KDa gelatinase; [2]): significantly lower | gelatinase activity vs vehicle alone (92 KDa gelatinase; [3]): reduced even further | UV-mediated induction of 92 KDa gelatinase levels, activity and mRNA (92 KDa gelatinase; [4]): decreases | level of 92 KDa gelatinase after UV irradiation (92 KDa gelatinase; [5]): substantial reduction | basal level of 92 KDa gelatinase (92 KDa gelatinase; [6]): did not alter | amount of cJUN protein in UV-exposed skin vs vehicle alone (cJUN protein; RA (retinoid) pretreatment 48 hours before exposure): significant reduction | amount of cJUN protein in UV-exposed skin vs vehicle alone (cJUN protein; RA pretreatment eight hours before exposure): did not cause any change | stromelysin-1 protein (stromelysin-1; 0.1% tRA applied daily for three days after UV exposure (0.01 to 2 MED)): significant reduction | UV-mediated induction of stromelysin-1 levels, activity and mRNA (stromelysin-1; [4]): decreases | level of stromelysin after UV irradiation (stromelysin-1; [5]): substantial reduction | basal level of stromelysin (stromelysin-1; [6]): did not alter
